Values quoted from earlier work in patent publication US20240261224A1, “FORMULATION OF A PAN-JAK INHIBITOR” (KINASET THERAPEUTICS, INC., priority 2022, published 2024).
At least one structure is not confirmed: it was looked up by name or label, or the drawing left a doubt.

Conditions: marketed DPI; cited from earlier work

## CCCC1O[C@@H]2C[C@H]3[C@@H]4CCC5=CC(=O)C=C[C@]5(C)[C@H]4[C@@H](O)C[C@]3(C)[C@]2(C(=O)CO)O1 (stereo partly shown) [budesonide]
  MMAD (μm): 2-3 μm
